Earlier results as cited in patent US20170115265A1, “Use of Visibly Detectable Compounds as Performance Reference Compounds in Passive Sampling Devices” (Geosyntec Consultants, Inc., priority 2015, published 2017).
At least one structure is not confirmed: it was looked up by name or label, or the drawing left a doubt.

Conditions: common dyes, Table 1; values said to be known; cited from earlier work

O=S1(=O)OC(c2ccc(O)cc2)(c2ccc(O)cc2)c2ccccc21 [Phenol red]
Log KOW value (may be estimate): 3.02
